This test relates to L1210 leukemia ip in BDF1 mice, survival T/C. The experiment in a line: NCI In Vivo Anticancer Drug Screen. Data for tumor model L1210 Leukemia (intraperitoneal) in B6D2F1 (BDF1) mice. Conditions: T/C endpoint: mean survival time, higher T/C = longer survival.
The mark [1] stands for this setting: dose: 50.0 mg/kg/injection, schedule: Q01DX001 (ip), vehicle: carboxymethylcellulose (CMC).
Where [2] appears, read: dose: 100.0 mg/kg/injection, schedule: Q01DX001 (ip), vehicle: carboxymethylcellulose (CMC).
Where [3] appears, read: dose: 200.0 mg/kg/injection, schedule: Q01DX001 (ip), vehicle: carboxymethylcellulose (CMC).
Setting [4] is: dose: 400.0 mg/kg/injection, schedule: Q01DX001 (ip), vehicle: carboxymethylcellulose (CMC).
Where [5] appears, read: dose: 400.0 mg/kg/injection, schedule: Q01DX009 (ip), vehicle: carboxymethylcellulose (CMC).
The mark [6] stands for this setting: dose: 12.5 mg/kg/injection, schedule: Q01DX009 (ip), vehicle: Klucel (hydroxypropylcellulose) (HPC).
[7] abbreviates: dose: 25.0 mg/kg/injection, schedule: Q01DX009 (ip), vehicle: Klucel (hydroxypropylcellulose) (HPC).
[8] abbreviates: dose: 25.0 mg/kg/injection, schedule: Q04DX003 (ip), vehicle: Klucel (hydroxypropylcellulose) (HPC).
Where [9] appears, read: dose: 100.0 mg/kg/injection, schedule: Q01DX009 (ip), vehicle: Klucel (hydroxypropylcellulose) (HPC).

Structures are written as SMILES. The list is a part of this screen's results and no random one: it gathers some chemical classes. Not every dose and run of a compound is shown. T/C gives the treated animals as a percentage of the vehicle group. Some entries give survivors of the animals treated and no T/C: the source files T/C as zero there, which appears to mark a toxic dose or a test without result, not a measured value. Some survivor counts are full or nearly so, which does not show that the dose was tolerated: the source hardly ever lists a survival T/C far under the control, and the zero likely stands for such cases as well. Counts of survivors are from the toxicity check (mostly the fifth day) where no day follows; animals may have died later. Schedules are NCI's codes, taken here to give the interval after Q, in days (D) or hours (H), and the number of doses after X. Some schedules carry Z or #; the key to these is not given. Some complexes appear as separate parts, the way the source draws them; their charges need not add up. For survival time, this PubChem deposit counts one and a half times the control or more as active, and values a quarter to a half above the control carry no call in these data; other NCI protocols may use other cut-offs. Brackets with × say how often a value occurs here. Some doses were run more than once; the results are listed from low to high. Some entries show no survivor count and are marked so; the dose need not have been tolerated. Some T/C values carry the count of animals alive at the toxicity check (mostly the fifth day); without a count or a note in brackets, all were alive then.

Turning to `CCC1([N+](=O)[O-])COP(=O)(Cl)OC1` (centres undefined), the T/C by setting is: under setting [1], 111 % of control; under setting [2], 98 % of control; under setting [3], 109 % of control. Further, the survivor count under setting [4] is 0 of 4.

As for `CCOP(=O)(NC(=O)NN1CCCCC1)OCC`, the T/C reads like this: under setting [2], 93 % of control; (dose: 100.0 mg/kg/injection, schedule: Q01DX009 (ip), vehicle: carboxymethylcellulose (CMC)) 100 % of control (2×); (dose: 100.0 mg/kg/injection, schedule: Q04DX002 (ip), vehicle: carboxymethylcellulose (CMC)) 98 % of control; (dose: 100.0 mg/kg/injection, schedule: Q04DX003 (ip), vehicle: carboxymethylcellulose (CMC)) 90 % of control; under setting [3], 88 % of control; (dose: 200.0 mg/kg/injection, schedule: Q01DX009 (ip), vehicle: carboxymethylcellulose (CMC)) 100 and 115 % of control. Also, the T/C by setting is: (dose: 200.0 mg/kg/injection, schedule: Q04DX002 (ip), vehicle: carboxymethylcellulose (CMC)) 88 % of control; (dose: 200.0 mg/kg/injection, schedule: Q04DX003 (ip), vehicle: carboxymethylcellulose (CMC)) 96 % of control; under setting [4], 108 % of control [5 of 6 alive]; under setting [5], 98 % of control; (dose: 400.0 mg/kg/injection, schedule: Q04DX002 (ip), vehicle: carboxymethylcellulose (CMC)) 94 % of control; (dose: 400.0 mg/kg/injection, schedule: Q04DX003 (ip), vehicle: carboxymethylcellulose (CMC)) 95 % of control. Also, under setting [5], the survivor count is on record as 0 of 3.

Take `Cc1ccc([N+](=O)[O-])cc1NC(=O)NNc1ccc([N+](=O)[O-])cc1[N+](=O)[O-]`: the T/C reads like this: (dose: 25.0 mg/kg/injection, schedule: Q01DX009 (ip), vehicle: saline with Tween-80) 93 % of control; (dose: 50.0 mg/kg/injection, schedule: Q01DX009 (ip), vehicle: saline with Tween-80) 100 % of control; (dose: 100.0 mg/kg/injection, schedule: Q01DX009 (ip), vehicle: saline with Tween-80) 98 % of control.

For `N/C(=N\[N+](=O)[O-])NCCCl`, the T/C by setting is: under setting [6], 110 % of control; under setting [7], 101 % of control; under setting [8], 98 % of control; (dose: 50.0 mg/kg/injection, schedule: Q01DX009 (ip), vehicle: Klucel (hydroxypropylcellulose) (HPC)) 100 % of control; (dose: 50.0 mg/kg/injection, schedule: Q04DX003 (ip), vehicle: Klucel (hydroxypropylcellulose) (HPC)) 94 % of control; under setting [9], 105 % of control. Moreover, for the setting “dose: 100.0 mg/kg/injection, schedule: Q04DX003 (ip), vehicle: Klucel (hydroxypropylcellulose) (HPC)”, the T/C is 91 and 95 % of control. Besides, the survivor count is, setting by setting: (dose: 200.0 mg/kg/injection, schedule: Q04DX003 (ip), vehicle: Klucel (hydroxypropylcellulose) (HPC)) 6 of 6; (dose: 400.0 mg/kg/injection, schedule: Q04DX003 (ip), vehicle: Klucel (hydroxypropylcellulose) (HPC)) 0 of 6.

Regarding `N#CCCOP(=O)(O)N(CCCl)CCCl.NC1CCCCC1`, the T/C was 111 % of control (dose: 100.0 mg/kg/injection, schedule: Q01DX001 (ip), vehicle: saline); 106 % of control (dose: 200.0 mg/kg/injection, schedule: Q01DX001 (ip), vehicle: saline); 121 % of control (dose: 400.0 mg/kg/injection, schedule: Q01DX001 (ip), vehicle: saline).

Regarding `Cc1ccc(SC2CCCC2Cl)cc1` (centres undefined), the T/C is, setting by setting: under setting [2], 96 % of control; under setting [3], 96 % of control; under setting [4], 98 % of control.

For `NC(=O)Nc1ccc([As](=O)(O)O)cc1`, the T/C by setting is: under setting [9], 92 % of control [5 of 6 alive]; (dose: 200.0 mg/kg/injection, schedule: Q01DX009 (ip), vehicle: Klucel (hydroxypropylcellulose) (HPC)) 98 % of control; (dose: 400.0 mg/kg/injection, schedule: Q01DX009 (ip), vehicle: Klucel (hydroxypropylcellulose) (HPC)) 92 % of control.

For the compound `CC(/C=N/N=C(\N)N[N+](=O)[O-])=N\N=C(/N)N[N+](=O)[O-]`, the T/C (dose: 15.0 mg/kg/injection, schedule: Q01DX Z (ip), vehicle: methylcellulose (MC)) was 92 % of control; the T/C (dose: 30.0 mg/kg/injection, schedule: Q01DX Z (ip), vehicle: methylcellulose (MC)) was 86 % of control; the T/C (dose: 30.0 mg/kg/injection, schedule: Q01DX Z (oral), vehicle: methylcellulose (MC)) was 97 % of control [4 of 6 alive]; the T/C (dose: 60.0 mg/kg/injection, schedule: Q01DX Z (ip), vehicle: methylcellulose (MC)) is 97 % of control; the T/C (dose: 60.0 mg/kg/injection, schedule: Q01DX Z (oral), vehicle: methylcellulose (MC)) is 86 % of control [5 of 6 alive]; the T/C (dose: 120.0 mg/kg/injection, schedule: Q01DX Z (oral), vehicle: methylcellulose (MC)) is 94 % of control [5 of 6 alive]. For the same compound, the survivor count (dose: 120.0 mg/kg/injection, schedule: Q01DX Z (ip), vehicle: methylcellulose (MC)) is given as 1 of 6 and the survivor count (dose: 240.0 mg/kg/injection, schedule: Q01DX Z (oral), vehicle: methylcellulose (MC)) is 2 of 6.

For the compound `OCCN(CC[OH2+])CC[OH2+].OCCN(CC[OH2+])CC[OH2+].[Ni+2].[O-][Cl+3]([O-])([O-])[O-]`, the T/C under setting [1] is 104 % of control. For the same compound, the survivor count is listed as 1 of 4 under setting [2], 0 of 4 under setting [3] and 1 of 4 under setting [4].

For the compound `O=[N+]([O-])c1cc([N+](=O)[O-])c(/C=C/c2cccc([N+](=O)[O-])c2[N+](=O)[O-])cc1/C=C/c1cccc([N+](=O)[O-])c1[N+](=O)[O-]`, the T/C reads like this: (dose: 75.0 mg/kg/injection, schedule: Q01DX001 (ip), vehicle: carboxymethylcellulose (CMC)) 93 % of control [survivor count not shown]; (dose: 150.0 mg/kg/injection, schedule: Q01DX001 (ip), vehicle: carboxymethylcellulose (CMC)) 90 % of control [survivor count not shown].

For `Cc1c(C(=O)N(CCCl)CCCl)[nH]c2ccccc12`, the T/C is 94 % of control (dose: 6.25 mg/kg/injection, schedule: Q04DX002 (ip), vehicle: saline); 88 % of control (dose: 12.5 mg/kg/injection, schedule: Q04DX002 (ip), vehicle: saline); 102 % of control (dose: 25.0 mg/kg/injection, schedule: Q04DX002 (ip), vehicle: saline); 96 % of control (dose: 35.0 mg/kg/injection, schedule: Q04DX002 (ip), vehicle: saline); 102 % of control (dose: 55.0 mg/kg/injection, schedule: Q04DX002 (ip), vehicle: saline); 100 % of control (dose: 80.0 mg/kg/injection, schedule: Q04DX002 (ip), vehicle: saline). Besides, the T/C (dose: 120.0 mg/kg/injection, schedule: Q04DX002 (ip), vehicle: saline) is 111 % of control; the T/C (dose: 180.0 mg/kg/injection, schedule: Q04DX002 (ip), vehicle: saline) is 108 % of control; the T/C (dose: 270.0 mg/kg/injection, schedule: Q04DX002 (ip), vehicle: saline) was 96 % of control.

Take `CCN(CC)CCOC(=O)C(O)(c1ccccc1)c1cc(C)cc(C)c1C` (centres undefined): the T/C runs as follows: (dose: 10.0 mg/kg/injection, schedule: Q01DX009 (ip), vehicle: Klucel (hydroxypropylcellulose) (HPC)) 112 % of control; under setting [6], 100 % of control; (dose: 12.5 mg/kg/injection, schedule: Q04DX003 (ip), vehicle: Klucel (hydroxypropylcellulose) (HPC)) 97 % of control; (dose: 20.0 mg/kg/injection, schedule: Q01DX009 (ip), vehicle: Klucel (hydroxypropylcellulose) (HPC)) 110 % of control; (dose: 20.0 mg/kg/injection, schedule: Q04DX003 (ip), vehicle: Klucel (hydroxypropylcellulose) (HPC)) 96 % of control; under setting [7], 94 % of control. The T/C is, setting by setting: under setting [8], 97 % of control; (dose: 40.0 mg/kg/injection, schedule: Q01DX009 (ip), vehicle: Klucel (hydroxypropylcellulose) (HPC)) 95 % of control.

These data come from PubChem BioAssay AID248 (DTP/NCI, 2004).
